Results are given in words; binding and its absence hold for the method and conditions named. Binding seen in cells or lysates may run through a third protein. A yes stands for co-enrichment or nearness to the bait. Other partners may have been found. Tags and fused reporters may be left off the sequences shown.

This experiment has as its target EIIA^Ntr tagged with His6 at its C-terminus (EIIA^Ntr-His6), unphosphorylated form (Salmonella Typhimurium). Put plainly: affinity purification with mass spectrometry; ligand fishing: 1 mg EIIA^Ntr-His6 mixed with S. Typhimurium SL1344 cell extract, Ni-NTA resin 1 h at 4 °C, 20 mM Tris-HCl pH 8.0, 300 mM NaCl; eluted with 250 mM imidazole; band from SDS-PAGE identified by LC-MS/MS; only the target purified.

B1: GlmS in solution (SEC-MALS) (enzyme, Salmonella Typhimurium, UniProt Q8ZKX1 1-609, looked up)
chain: MCGIVGAIAQRDVAEILLEGLRRLEYRGYDSAGLAVVDAEGHMTRLRRLGKVQMLAQAAEEHPLHGGTGIAHTRWATHGEPSEANAHPHVSEHIVVVHNGIIENHEPLREALKARGYTFVSETDTEVIAHLVNWELKQGGTLREAVLRAIPQLRGAYGTVIMDTRHPDTLLAARSGSPLVIGLGMGENFIASDQLALLPVTRRFIFLEEGDIAEITRRSVNIFDNTGAEVKRQDIESNLQYDAGDKGIYRHYMQKEIYEQPNAIKNTLTGRISHGQVDLSELGPNADELLSKVEHIQILACGTSYNSGMVSRYWFESLAGIPCDVEIASEFRYRKSAVRRNSLMITLSQSGETADTLAGLRLSKELGYLGSLAICNVPGSSLVRESDLALMTNAGTEIGVASTKAFTTQLTVLLMLVAKLSRLKGLDASIEHDIVHGLQALPSRIEQMLSQDKRIELLAEDFSDKHHALFLGRGDQYPIALEGALKLKEISYIHAEAYAAGELKHGPLALIDADMPVIVVAPNNELLEKLKSNIEEVRARGGQLYVFADQDAGFVSNDNMHIIEMPHVEEVIAPIFYTVPLQLLAYHVALIKGTDVDQPRNLAKSVTVE
notes: D-glucosamine-6-phosphate synthase (GlmS), Salmonella Typhimurium; 128 kDa dimer by SEC-MALS; it may be the same as m7; also called GlmS dimer
Consider B1, for which the binding result was “binds”.

These data come from PMC5024086, “Fine-tuning of amino sugar homeostasis by EIIA^Ntr in Salmonella Typhimurium” (Scientific Reports, 2016).
